# Data from the supplement of paper PMC6411743.
# ± gives the standard deviation of the averaged measurements. The entries are a selection whose mix differs from that of the whole data set.
# Legend:
# Assay in all cases: NP40-soluble protein abundance relative to vehicle (solubility fold change) (ratio); higher = more soluble protein in presence of ATP
# [1] = target: T1, MLLT11 (UniProt Q13015)
# T1 sequence (whole entry): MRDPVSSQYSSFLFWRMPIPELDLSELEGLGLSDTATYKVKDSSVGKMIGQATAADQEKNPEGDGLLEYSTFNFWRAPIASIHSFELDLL
# In short: (§1)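 Jurkat crude lysate (Dounce-homogenised) was treated with eight concentrations from 0.1 to 10 mM for 10 min at room temperature, then 3 min at 37 °C. It was solubilised with 0.8% NP40 and benzonase (60 min, 4 °C) and ultracentrifuged, and the supernatant was TMT-labelled for LC-MS/MS. Intensities were vsn-normalised, and the value is the fold change against the NP40-processed vehicle per replicate, from three independent experiments.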
# [2] = target: T2, UniProt Q01432-5|Q01432 and related entries
# T2 sequence (whole entry): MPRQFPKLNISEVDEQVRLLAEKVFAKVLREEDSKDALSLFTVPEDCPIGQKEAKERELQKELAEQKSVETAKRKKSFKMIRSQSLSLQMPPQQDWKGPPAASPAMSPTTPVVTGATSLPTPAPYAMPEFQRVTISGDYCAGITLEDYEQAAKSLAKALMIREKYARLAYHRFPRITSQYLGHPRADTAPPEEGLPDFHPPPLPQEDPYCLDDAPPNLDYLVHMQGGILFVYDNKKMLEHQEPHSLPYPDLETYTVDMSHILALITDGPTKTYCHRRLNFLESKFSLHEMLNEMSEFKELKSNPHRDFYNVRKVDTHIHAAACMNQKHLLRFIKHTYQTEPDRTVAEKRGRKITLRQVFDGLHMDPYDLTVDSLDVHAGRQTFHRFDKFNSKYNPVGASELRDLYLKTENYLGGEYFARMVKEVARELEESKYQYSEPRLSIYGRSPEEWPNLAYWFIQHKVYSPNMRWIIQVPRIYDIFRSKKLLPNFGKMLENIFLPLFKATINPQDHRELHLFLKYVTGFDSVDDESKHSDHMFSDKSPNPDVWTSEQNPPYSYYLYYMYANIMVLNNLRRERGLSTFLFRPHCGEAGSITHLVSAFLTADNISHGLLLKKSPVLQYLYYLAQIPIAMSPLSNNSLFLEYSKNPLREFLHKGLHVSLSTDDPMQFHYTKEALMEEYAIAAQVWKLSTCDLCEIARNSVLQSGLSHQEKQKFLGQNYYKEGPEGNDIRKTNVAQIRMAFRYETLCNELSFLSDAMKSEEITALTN
# In short: as §1
# [3] = target: T3, UniProt Q01850 and related entries
# T3 sequence (whole entry): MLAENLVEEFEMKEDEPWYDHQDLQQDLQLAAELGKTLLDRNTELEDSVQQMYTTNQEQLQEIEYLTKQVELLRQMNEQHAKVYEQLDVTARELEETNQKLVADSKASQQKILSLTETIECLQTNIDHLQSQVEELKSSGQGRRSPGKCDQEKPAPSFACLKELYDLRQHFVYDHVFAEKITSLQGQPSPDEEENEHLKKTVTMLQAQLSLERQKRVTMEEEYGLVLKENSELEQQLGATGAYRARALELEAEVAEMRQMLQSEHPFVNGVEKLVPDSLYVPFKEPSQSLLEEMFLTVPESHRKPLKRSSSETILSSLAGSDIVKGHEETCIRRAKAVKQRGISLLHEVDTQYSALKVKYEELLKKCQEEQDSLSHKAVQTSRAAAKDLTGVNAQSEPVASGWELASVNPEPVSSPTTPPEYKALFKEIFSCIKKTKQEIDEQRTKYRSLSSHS
# In short: as §1
# [4] = target: T4, UniProt Q12974
# T4 sequence (whole entry): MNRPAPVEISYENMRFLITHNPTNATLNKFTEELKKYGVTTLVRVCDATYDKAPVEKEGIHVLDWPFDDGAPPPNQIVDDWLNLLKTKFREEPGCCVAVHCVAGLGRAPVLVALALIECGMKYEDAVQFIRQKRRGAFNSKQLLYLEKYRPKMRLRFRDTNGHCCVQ
# In short: as §1
# [5] = target: T5, UniProt Q13188 and related entries
# T5 sequence (whole entry): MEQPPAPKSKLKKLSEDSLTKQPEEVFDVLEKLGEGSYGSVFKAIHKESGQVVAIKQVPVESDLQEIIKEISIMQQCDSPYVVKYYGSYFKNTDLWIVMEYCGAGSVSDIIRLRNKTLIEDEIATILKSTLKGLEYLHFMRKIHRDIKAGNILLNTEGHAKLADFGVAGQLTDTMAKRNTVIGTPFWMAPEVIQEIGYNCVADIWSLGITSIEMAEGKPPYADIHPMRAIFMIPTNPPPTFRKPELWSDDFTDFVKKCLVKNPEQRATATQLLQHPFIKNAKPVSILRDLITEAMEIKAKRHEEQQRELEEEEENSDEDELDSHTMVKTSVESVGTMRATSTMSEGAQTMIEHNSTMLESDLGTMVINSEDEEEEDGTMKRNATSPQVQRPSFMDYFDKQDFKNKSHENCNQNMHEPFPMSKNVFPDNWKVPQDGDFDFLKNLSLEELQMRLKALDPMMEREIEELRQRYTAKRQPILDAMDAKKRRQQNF
# In short: as §1
compound,measurement,setting,value
Nc1ncnc2c1ncn2[C@@H]1O[C@H](COP(=O)(O)OP(=O)(O)OP(=O)(O)O)[C@@H](O)[C@H]1O [adenosine triphosphate],NP40-soluble protein abundance,[1]; concentration: 6mM,0.892 ± 0.22
same,NP40-soluble protein abundance,[1]; concentration: 8mM,0.905 ± 0.078
same,NP40-soluble protein abundance,[1]; concentration: 10mM,0.837 ± 0.092
same,NP40-soluble protein abundance,[2]; concentration: 1mM,1.04 ± 0.024
same,NP40-soluble protein abundance,[2]; concentration: 2mM,1.03 ± 0.036
same,NP40-soluble protein abundance,[2]; concentration: 4mM,1.01 ± 0.026
same,NP40-soluble protein abundance,[2]; concentration: 6mM,0.964 ± 0.048
same,NP40-soluble protein abundance,[2]; concentration: 8mM,1.022 ± 0.0056
same,NP40-soluble protein abundance,[2]; concentration: 10mM,1.02 ± 0.05
same,NP40-soluble protein abundance,[3]; concentration: 1mM,0.893 ± 0.066
same,NP40-soluble protein abundance,[3]; concentration: 2mM,0.99 ± 0.062
same,NP40-soluble protein abundance,[3]; concentration: 4mM,0.921 ± 0.042
same,NP40-soluble protein abundance,[3]; concentration: 6mM,0.962 ± 0.066
same,NP40-soluble protein abundance,[3]; concentration: 8mM,0.873 ± 0.034
same,NP40-soluble protein abundance,[3]; concentration: 10mM,0.914 ± 0.12
same,NP40-soluble protein abundance,[4]; concentration: 1mM,0.978 ± 0.052
same,NP40-soluble protein abundance,[4]; concentration: 2mM,0.948 ± 0.032
same,NP40-soluble protein abundance,[4]; concentration: 4mM,0.914 ± 0.058
same,NP40-soluble protein abundance,[4]; concentration: 6mM,0.938 ± 0.079
same,NP40-soluble protein abundance,[4]; concentration: 8mM,0.927 ± 0.048
same,NP40-soluble protein abundance,[4]; concentration: 10mM,0.898 ± 0.032
same,NP40-soluble protein abundance,[5]; concentration: 1mM,0.954 ± 0.048
same,NP40-soluble protein abundance,[5]; concentration: 2mM,0.974 ± 0.038
same,NP40-soluble protein abundance,[5]; concentration: 4mM,0.949 ± 0.034
same,NP40-soluble protein abundance,[5]; concentration: 6mM,0.962 ± 0.033
same,NP40-soluble protein abundance,[5]; concentration: 8mM,0.951 ± 0.024
same,NP40-soluble protein abundance,[5]; concentration: 10mM,0.933 ± 0.017

# Random excerpt: 2 records from the list
compound,measurement,setting,value
Nc1ncnc2c1ncn2[C@@H]1O[C@H](COP(=O)(O)OP(=O)(O)OP(=O)(O)O)[C@@H](O)[C@H]1O [adenosine triphosphate],NP40-soluble protein abundance,[3]; concentration: 2mM,0.99 ± 0.062
same,NP40-soluble protein abundance,[5]; concentration: 2mM,0.974 ± 0.038
